{
  "sequences": {"note": "By UniProt entry, the sequences of proteins in these tests, tags left out. Residues count along the entry.", "UniProt Q9UNA0, 262-930 limits assumed": "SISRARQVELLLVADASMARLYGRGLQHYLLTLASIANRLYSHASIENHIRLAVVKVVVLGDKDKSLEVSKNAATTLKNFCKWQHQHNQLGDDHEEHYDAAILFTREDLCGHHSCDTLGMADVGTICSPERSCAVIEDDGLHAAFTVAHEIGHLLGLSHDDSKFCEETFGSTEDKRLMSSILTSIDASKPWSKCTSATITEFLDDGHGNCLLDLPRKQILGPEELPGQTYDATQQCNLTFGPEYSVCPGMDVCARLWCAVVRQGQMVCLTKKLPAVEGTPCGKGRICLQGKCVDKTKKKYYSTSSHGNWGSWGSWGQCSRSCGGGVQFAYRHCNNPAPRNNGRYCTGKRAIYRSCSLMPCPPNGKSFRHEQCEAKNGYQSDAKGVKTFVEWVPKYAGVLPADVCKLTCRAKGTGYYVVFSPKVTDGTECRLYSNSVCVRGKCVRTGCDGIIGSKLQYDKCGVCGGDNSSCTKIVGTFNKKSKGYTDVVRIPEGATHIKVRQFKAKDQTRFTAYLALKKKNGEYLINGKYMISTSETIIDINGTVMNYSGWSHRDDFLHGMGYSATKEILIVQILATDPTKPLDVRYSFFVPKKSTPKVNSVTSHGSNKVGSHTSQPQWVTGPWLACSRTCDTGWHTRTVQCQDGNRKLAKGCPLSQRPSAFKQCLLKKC"},
  "source": "paper PMC8494430",
  "about": "“Development of a fluorogenic ADAMTS-7 substrate” (Journal of Enzyme Inhibition and Medicinal Chemistry, 2021)",
  "origin": "cited, not measured here",
  "target": "ADAMTS-5 (Homo sapiens, UniProt Q9UNA0)",
  "conditions": "read-out: Km of substrate for ADAMTS-5; used for Cheng-Prusoff, [S] 40; ref 2 (Supplementary References); cited from earlier work",
  "note": "The structures given here were assigned with low confidence; some may be wrong.",
  "data": [
    {"smiles": "CC[C@H](C)[C@H](NC(=O)[C@H](C)NC(=O)CNC(=O)[C@H](CCCNC(=N)N)NC(=O)[C@H](CO)NC(=O)[C@H](CCC(=O)O)NC(=O)[C@H](CO)NC(=O)[C@H](CCC(=O)O)NC(=O)[C@@H](NC(=O)c1ccccc1N)[C@@H](C)O)C(=O)N[C@@H](Cc1ccc(O)cc1)C(=O)N[C@@H](CNc1ccc([N+](=O)[O-])cc1[N+](=O)[O-])C(=O)N[C@@H](CCCCN)C(=O)N[C@@H](CCCCN)C(=O)O", "values": [
      {"measurement": "Km", "value": 76, "unit": "µM"}
    ]}
  ]
}
